Measurements: article PMC8546353
Results are given in words; binding and its absence hold for the method and conditions named. Binding seen in cells or lysates may run through a third protein. Binding can be weak; no strength is given.

Target: T1, SecY translocase (Synechocystis sp. PCC 6803) (UniProt P77964)
T1 sequence: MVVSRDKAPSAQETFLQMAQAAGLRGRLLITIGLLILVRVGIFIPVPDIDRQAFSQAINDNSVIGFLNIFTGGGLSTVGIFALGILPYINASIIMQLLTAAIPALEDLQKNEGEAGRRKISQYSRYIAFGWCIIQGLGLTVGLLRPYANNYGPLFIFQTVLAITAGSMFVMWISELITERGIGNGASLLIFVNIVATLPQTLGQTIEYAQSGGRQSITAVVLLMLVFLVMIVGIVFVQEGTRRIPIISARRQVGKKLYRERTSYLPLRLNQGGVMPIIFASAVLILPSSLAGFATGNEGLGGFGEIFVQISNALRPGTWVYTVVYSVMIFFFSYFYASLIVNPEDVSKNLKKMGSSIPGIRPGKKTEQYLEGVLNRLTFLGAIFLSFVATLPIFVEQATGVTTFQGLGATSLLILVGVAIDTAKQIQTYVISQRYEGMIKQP
Assay: co-IP; anti-SecY antibody incubated overnight with membrane proteins isolated from WT, ΔpilD, rev2 and rev3 strains grown with glucose (Glc+), then immobilised on Protein A-Sepharose, washed, eluted in 1% SDS/dithiothreitol; blot probed with anti-SecY, anti-PilA1 and anti-SecE antibodies

For “non-glycosylated PilA1 prepilin (Synechocystis sp. PCC 6803)”, the binding was “binds”.
